Measurements: US20090226444A1 (MICROMET, published 2009)
These are yes or no findings as the source states them, for the method shown. Some results given as binding are weak or reduced against the parent protein; the word gives no strength.

Protein sequences, listed by entry. Tags and fused reporters are not part of them. Lines headed by an entry give the natural chain unless they say otherwise; changes in a name come on top.
UniProt P06731: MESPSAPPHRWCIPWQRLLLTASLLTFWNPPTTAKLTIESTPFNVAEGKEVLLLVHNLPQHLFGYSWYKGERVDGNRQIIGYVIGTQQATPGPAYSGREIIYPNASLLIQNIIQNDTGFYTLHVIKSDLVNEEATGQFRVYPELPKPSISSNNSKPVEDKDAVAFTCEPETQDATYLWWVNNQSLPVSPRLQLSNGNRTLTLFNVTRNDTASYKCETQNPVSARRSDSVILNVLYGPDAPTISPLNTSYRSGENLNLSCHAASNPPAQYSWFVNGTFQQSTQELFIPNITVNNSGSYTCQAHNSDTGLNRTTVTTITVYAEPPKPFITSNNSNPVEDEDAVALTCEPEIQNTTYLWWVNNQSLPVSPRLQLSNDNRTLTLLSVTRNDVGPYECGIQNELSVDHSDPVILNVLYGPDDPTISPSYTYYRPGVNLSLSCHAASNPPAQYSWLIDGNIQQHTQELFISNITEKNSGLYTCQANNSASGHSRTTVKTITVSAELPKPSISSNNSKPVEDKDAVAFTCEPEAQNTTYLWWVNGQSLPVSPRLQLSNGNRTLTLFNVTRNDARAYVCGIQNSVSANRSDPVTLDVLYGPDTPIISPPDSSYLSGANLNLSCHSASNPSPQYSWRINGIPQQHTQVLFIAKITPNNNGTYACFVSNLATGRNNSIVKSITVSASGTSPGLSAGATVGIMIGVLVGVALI

Legend:
[1] = target: soluble human CEA antigen (sCEA; Abcam, Ltd, Cambridge UK) (human) (UniProt P06731); assay: summary of Example 2 (ELISA on sCEA)
[2] = target: soluble human CEA antigen (sCEA; Abcam, Ltd, Cambridge UK) (human) (UniProt P06731); assay: ELISA on immobilized sCEA
[3] = target: soluble human CEA antigen (sCEA; Abcam, Ltd, Cambridge UK) (human) (UniProt P06731); assay: ELISA on immobilized CEA antigen; culture supernatant, 10 and 1 ug/ml antibody

Measured: binding

B1: huIgG1 CEA I derived from antibody CEA I (A5B7) (antibody, V domains shown)
VH: EVQLVESGGGLVQPGGSLRLSCATSGFTFTDYYMNWVRQPPGKALEWLGFIGNKANGYTTEYSASVKGRFTISRDKSQSILYLQMNTLRAEDSATYYCTRDRGLRFYFDYWGQGTTVTVSS
VL: DIELTQSPAILSASPGEKVTMTCRASSSVTYIHWYQQKPGSSPKSWIYATSNLASGVPARFSGSGSGTSYSLTISRVEAEDAATYYCQHWSSKPPTFGGGTKLEIKR
binds: all assays above
